# In the supplement of paper PMC3334620:
# Whole data set: some 33,000 sequences, median “E-score (-0.5 to 0.5)” near -0.015, cut for the highest 2% near 0.3. The list shows a part of the results.
# Biological target: T1, Abf1 (UniProt P14164)
# T1 sequence: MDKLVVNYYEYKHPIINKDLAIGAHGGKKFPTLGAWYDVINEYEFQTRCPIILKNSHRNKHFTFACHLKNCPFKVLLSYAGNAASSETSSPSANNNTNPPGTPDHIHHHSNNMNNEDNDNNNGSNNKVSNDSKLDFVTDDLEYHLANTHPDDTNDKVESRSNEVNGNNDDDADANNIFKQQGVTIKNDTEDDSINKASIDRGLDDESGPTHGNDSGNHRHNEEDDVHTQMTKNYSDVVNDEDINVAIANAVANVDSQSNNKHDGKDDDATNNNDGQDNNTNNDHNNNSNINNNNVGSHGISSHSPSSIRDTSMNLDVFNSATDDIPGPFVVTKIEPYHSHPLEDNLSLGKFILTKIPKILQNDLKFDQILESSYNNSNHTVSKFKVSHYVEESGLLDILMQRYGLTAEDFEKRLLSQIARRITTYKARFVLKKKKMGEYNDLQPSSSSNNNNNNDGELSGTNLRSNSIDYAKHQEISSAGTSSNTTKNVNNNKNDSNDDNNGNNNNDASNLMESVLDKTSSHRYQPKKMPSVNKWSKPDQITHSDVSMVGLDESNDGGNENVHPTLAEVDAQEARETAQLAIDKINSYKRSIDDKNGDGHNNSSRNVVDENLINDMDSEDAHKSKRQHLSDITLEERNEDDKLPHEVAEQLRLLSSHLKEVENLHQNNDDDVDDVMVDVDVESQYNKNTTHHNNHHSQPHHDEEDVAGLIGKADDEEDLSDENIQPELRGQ
# Assay: PBM E-score (8-mer binding enrichment) (E-score (-0.5 to 0.5)); higher = stronger / more preferred TF binding
# Settings: protein concentration: 200 nM; construct: GST-full length
# In short: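 Yeast transcription factors, full-length or as DNA-binding domains, were expressed with a GST tag using PURExpress in vitro transcription/translation. At about 100-200 nM they were applied to universal all-10-mer Agilent arrays, double-stranded by primer extension on fresh or once-stripped slides. Fluorescent anti-GST detected bound protein, and masliner normalised the scans. E-scores for ungapped eight-base words, pooled with reverse complements, came from the Universal PBM Analysis Suite.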
row,Sequence,PBM E-score
1,GCACTGGC,0.0001
2,AACGGTAG,-0.0289
3,GAAAAGCA,-0.104
4,CACCAGAC,-0.0164
5,GATCGTGC,0.244
6,CTTCGAAG,-0.105
7,GCAAGCAA,0.181
8,AATTGGAG,-0.0849
9,CCGCCGCC,-0.107
10,ACTCGTCC,0.274
11,GAGCACAA,-0.0779
12,CATGCGAC,0.15
13,CAAATTTA,0.0786
14,CTCCGTGC,0.0314
15,ACAGGGAC,-0.088
16,AGATAGAA,-0.00652
17,ATCAACAG,0.0752
18,GGTATATA,0.161
19,AGCTCCAT,-0.235
20,ACACTATA,0.0499
21,GTCTATAA,0.022
22,CATGAGGC,-0.201

# 2 entries drawn at random from the list so far, as already listed:
row,Sequence,PBM E-score
7,GCAAGCAA,0.181
18,GGTATATA,0.161

# Additional entries follow:

row,Sequence,PBM E-score
1,TAAACCCA,0.0331
2,CTTATCGA,0.144
3,ATTGGGGC,-0.095
4,AAGGCCCG,-0.325
5,AGCATATG,-0.0516
6,AAGATAGG,-0.151
7,ACAAATCG,0.178
8,CCCCTCAC,-0.135
9,CCTAGGAC,-0.206
10,GAGTCAGC,-0.0946
11,GCGATGCC,-0.123
12,GTGAGCAA,0.0803
13,ATTCACAC,-0.0104
14,GCTACGCA,-0.0831
15,AAGAGCGT,-0.00842
16,AGACATGA,0.171
17,GGAACTTA,0.0435
18,GCTTCTGA,-0.0397
19,GGCCTCCC,-0.31
20,ACTCCCAT,-0.029
21,ACTGCAGT,-0.0247
22,AGGGCCAG,-0.145

row,Sequence,PBM E-score
1,TGCTTCCA,-0.231
2,CTTCTGGA,-0.284
3,AGAATTCA,-0.00123
4,ACACATTG,0.00282
5,ACGAACAT,0.237
6,CGCTGTAA,-0.0975
7,CCGGGACG,-0.132
8,CATCTCCA,-0.025
9,ATTTTCGG,0.145
10,ATTGACTG,0.00827
11,TTATACAA,0.113
12,GTCATCTA,0.183
13,GACATGCC,0.0181
14,AGAAATCT,0.00508
15,GGGATTAA,-0.0401
16,ATAAGGAA,-0.234
17,CAATAGCG,-0.144
18,CTATTAAC,0.122
19,GTGTTGCA,0.0765
20,AGCCCTAC,-0.0851
21,ACATCCGC,-0.00592
22,ATCAGCCG,-0.0221

row,Sequence,PBM E-score
1,TGGGAGAA,-0.155
2,ACTCCCAG,-0.115
3,ACAGGATG,0.0931
4,CATCCGAC,0.151
5,ACAGGAGA,0.0304
6,AAATTCGC,0.0441
7,CCTTAATC,-0.128
8,CGCTGCTC,-0.0119
9,CTTTGGAA,-0.0263
10,CGGATATA,0.185
11,CCGACAGG,-0.0487
12,CAATACAG,-0.0786
13,ATCGCGTG,0.23
14,CTACAATC,0.164
15,CAACGCCC,-0.181
16,CGGCTTGA,-0.0107
17,TAAACAAA,0.118
18,AATGTTAT,0.105
19,ACCACCCC,-0.265
20,ACTTAAAG,-0.173
